No constants are given. Whether binding was seen depends on the method and setting. In cells and extracts the contact can be indirect. Some results given as binding are weak or reduced against the parent protein; the word gives no strength. Sequences can lack the tags named with a protein.
Biological target: T1, MBP-SulA (pBCA006, the putative B. cenocepacia SulA) (Burkholderia cenocepacia J2315) (UniProt B4EQP0)
T1 sequence: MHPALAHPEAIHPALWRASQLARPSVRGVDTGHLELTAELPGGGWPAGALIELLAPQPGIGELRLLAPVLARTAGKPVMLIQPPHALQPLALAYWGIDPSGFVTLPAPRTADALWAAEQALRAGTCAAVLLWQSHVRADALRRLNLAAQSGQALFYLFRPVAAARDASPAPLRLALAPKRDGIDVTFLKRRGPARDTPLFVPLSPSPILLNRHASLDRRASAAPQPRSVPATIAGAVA
Assay: pull-down; cell extract of E. coli TOP10 with 5 mM ATP loaded on MBPTrap HP, eluted with 10 mM maltose in buffer C (50 mM Tris-HCl pH 7, 5 mM MgCl2, glycerol 5%)

Sequences of proteins named here, by UniProt entry; tags and fusion partners are left off.
UniProt P0A6F5: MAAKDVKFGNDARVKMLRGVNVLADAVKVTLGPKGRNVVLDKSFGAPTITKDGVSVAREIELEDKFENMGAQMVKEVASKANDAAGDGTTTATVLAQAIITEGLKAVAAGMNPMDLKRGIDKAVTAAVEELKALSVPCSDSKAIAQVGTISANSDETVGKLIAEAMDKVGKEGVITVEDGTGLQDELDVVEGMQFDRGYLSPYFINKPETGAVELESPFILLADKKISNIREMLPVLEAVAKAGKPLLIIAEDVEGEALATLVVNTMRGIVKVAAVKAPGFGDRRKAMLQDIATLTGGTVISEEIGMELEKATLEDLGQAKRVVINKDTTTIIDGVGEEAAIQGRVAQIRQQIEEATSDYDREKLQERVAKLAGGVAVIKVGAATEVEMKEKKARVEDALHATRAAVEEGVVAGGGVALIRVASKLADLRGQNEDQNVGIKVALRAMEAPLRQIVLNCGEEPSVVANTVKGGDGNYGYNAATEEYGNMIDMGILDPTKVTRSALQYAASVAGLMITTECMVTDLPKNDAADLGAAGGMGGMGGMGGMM

E. coli chaperone GroEL (from UniProt P0A6F5 1-548)
binding: binds
